Test in all cases: odorant receptor activation (CRE luciferase / Renilla) (fold of no-odor wells); higher = more activation
Common to all, as to conditions: 100 µM

Experiment [1] has as its system OR2T5 clone 1495.
Experiment [2] deals with OR2T5 clone 1496.
In experiment [3] the test system is OR2T6 N21D/C23G/S243A clone 1432.
Experiment [4] concerns OR2T8 clone 1576.
Experiment [5] concerns OR2V1 clone 1718.
Experiment [6] concerns OR2W1 D296N clone 1536.
Experiment [7] concerns OR2W1 clone 1067.
The test system of experiment [8] is OR2W3 Indel clone 1491.
For experiment [9], the system named is OR2W5 clone 1506.
The subject of experiment [10] is OR2Y1 V200L clone 1069.
Experiment [11] concerns OR2Z1 clone 1296.
The test system of experiment [12] is OR3A1 clone 1288.
Experiment [13] relates to OR3A2 clone 1286.
Experiment [14] relates to OR3A3 clone 1549.
For experiment [15], the system named is OR3A4 I42V/S86R/E103Q/I120V/P168T/N175S clone 1550.
Experiment [16] relates to OR4A15 A257V clone 1216.
For experiment [17], the system named is OR4A16 clone 1518.
In experiment [18] the test system is OR4A4 clone 1134.
Experiment [19] has as its system OR4A47 I104L/V145M clone 1579.
Experiment [20] concerns OR4A5 clone 1637.

7 compounds from the odorant receptor screen of Mainland et al. (2015) can be followed below.

Structures are written as SMILES. Values joined by “and” are separate entries in the source; they are usually repeats but may differ in a detail not shown here. Equal values may be shown once. This is one part of the list. Single wells; the ratio to wells without odorant was worked out here, and repeats agree poorly.

`O=CCc1ccccc1` [phenyl acetaldehyde]: the odorant receptor activation in experiment [1] came to 1.18; in experiment [2], 1.51; in experiment [3], 1.37; in experiment [4], 1.53; in experiment [5] it was 1.45; in experiment [6], 0.958. Moreover, the odorant receptor activation in [7] was 0.804 and 1.21; in experiment [8] it was 0.894; in experiment [9] it was 1.07; in [10], 1.18; in [11], 1.11; in [12], 1.35. Besides, the odorant receptor activation in [13] was determined as 0.744; in experiment [14], 1.02; in [15], 0.913; in [16], 1.12; in experiment [17] it was 1.02; in experiment [18] it was 1.49. Moreover, the odorant receptor activation in experiment [19] was 1.78; in experiment [20], 1.67.
On to `COC(=O)c1ccccc1O` [methyl salicylate], for which the odorant receptor activation in experiment [1] was 1.09; in experiment [2], 1.19; in experiment [3], 1.12; in [4], 0.834; in [5], 0.903; in experiment [6] it was 1.29. Besides, the odorant receptor activation is 1.1 and 1.55 in experiment [7]; 0.778 in [8]; 0.996 in experiment [9]; 1.23 in [10]; 0.597 in [11]; 1.06 in [12]. Also, the odorant receptor activation in [13] worked out at 0.991; in [14], 0.774; in experiment [15], 0.919; in experiment [16], 0.771; in experiment [17], 0.918; in experiment [18], 0.741. In addition, the odorant receptor activation turned out to be 0.993 in [19] and 0.757 in experiment [20].
In the case of `CC=Cc1ccc(O)c(OC)c1` [isoeugenol], the odorant receptor activation in experiment [1] was 0.97 and 1.67; in [2], 2.08 and 1.83; in experiment [3] it was 1.49; in experiment [4], 5.06; in experiment [5], 4.44; in [6], 1.25 and 1.72. Further, the odorant receptor activation in [7] is 2.61 and 0.898; in experiment [8] it was 1.38 and 2.53; in [9], 1.01 and 1.57; in experiment [10], 1.43; in experiment [11], 0.988 and 0.951; in experiment [12], 1.17 and 1.56. The odorant receptor activation in experiment [13] was 1.28 and 1.5; in experiment [14], 4.09; in experiment [15], 3.49; in experiment [16] it was 1.15; in experiment [17], 1.72 and 2.35; in experiment [18], 0.872. Also, the odorant receptor activation in experiment [19] stood at 4.76; in [20], 5.63.
Regarding `C=CCSCC=C` [diallyl sulfide], the odorant receptor activation was determined as 1.07 in experiment [1]; 1.38 in [2]; 1.21 in [3]; 0.77 in experiment [4]; 0.81 in [5]; 1.23 in experiment [6]. In addition, the odorant receptor activation in [7] was 1.61 and 1.06; in experiment [8] it was 0.928; in experiment [9] it was 0.917; in [10] it was 1.11; in [11], 0.768; in [12] it was 1.02. The odorant receptor activation worked out at 0.864 in experiment [13]; 1.07 in experiment [14]; 0.844 in experiment [15]; 1.43 in experiment [16]; 1.27 in experiment [17]; 1.16 in experiment [18]. The odorant receptor activation came to 0.591 in experiment [19] and 1.02 in [20].
`CC12CCC(C1)C(C)(C)C2=O` (stereo not given) [fenchone]: the odorant receptor activation in experiment [1] was determined as 1.15; in experiment [2], 1.02; in experiment [3] it was 0.969; in experiment [4] it was 0.929; in experiment [5] it was 0.882; in experiment [6], 1.04. For the same compound, the odorant receptor activation is 0.835 and 0.953 in experiment [7]; 0.925 in experiment [8]; 1.01 in experiment [9]; 1.11 in experiment [10]; 0.772 in experiment [11]; 1.12 in experiment [12]. Besides, the odorant receptor activation came out at 0.938 in experiment [13]; 0.927 in experiment [14]; 0.695 in experiment [15]; 1.07 in experiment [16]; 0.854 in experiment [17]; 1.04 in experiment [18]. The results for the odorant receptor activation in [19] and in [20] were 0.788 and 1.04, respectively.
For the compound `CCCCCCCCCC=O` [decyl aldehyde], the odorant receptor activation in experiment [1] was 1.1; in experiment [2] it was 1.04; in experiment [3] it was 1.44; in experiment [4] it was 0.904; in [5], 0.847; in experiment [6] it was 1.29. In addition, the odorant receptor activation in experiment [7] was 1.73 and 1.39; in experiment [8], 1.12; in experiment [9] it was 1.16; in [10], 1.12; in experiment [11], 0.838; in experiment [12], 1.19. Besides, the odorant receptor activation in experiment [13] worked out at 0.978; in [14] it was 1.04; in experiment [15], 0.913; in [16], 1.33; in [17], 0.922; in experiment [18], 1.52. For the same compound, the odorant receptor activation in experiment [19] was 0.726; in [20], 1.72.
As to `CCCCCCCCOC(C)=O` [octyl acetate], the odorant receptor activation in [1] was 0.939; in [2], 1.19; in experiment [3], 1.02; in experiment [4] it was 0.786; in experiment [5], 0.755; in experiment [6], 2.28. For the same compound, the odorant receptor activation in experiment [7] was 1.16 and 3.25; in experiment [8] it was 0.787; in [9] it was 0.827; in experiment [10], 1.04; in [11], 0.616; in experiment [12], 1.03. For the same compound, the odorant receptor activation was determined as 1.09 in [13]; 0.953 in [14]; 0.754 in experiment [15]; 0.984 in experiment [16]; 0.941 in experiment [17]; 0.924 in [18]. The figures for the odorant receptor activation in experiment [19] and in [20] were 0.95 and 0.83, respectively.
